Results deposited as PubChem BioAssay AID602196 (INSERM, 2012).
Aim: 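Knock-downs that protect lung cancer cells from cisplatin or sensitise them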. Cells: human A549 lung cancer cells. Knock-down reagent: siRNA pair against human genes. Time to read-out: 48 h transfection before cisplatin; time from cisplatin to read-out not stated. Challenge: cisplatin at a dose killing half of control-siRNA cells; exact dose and duration not given. Read-out: 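Shift in cisplatin death relative to control siRNA, from -50 (all cells die) to +50 (no cells die); siRNAs harmful on their own scored 0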. Scale: two-siRNA summed score (-2 to +2): higher = both siRNAs protect from cisplatin killing; -2 means both sensitise; mean protection from cisplatin (shift in death) and protection from cisplatin (shift in death), siRNA C and protection from cisplatin (shift in death), siRNA D: higher = protection from cisplatin killing. Call rule: 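siRNAs harmful alone (LDH or WST-1) get 0; others get +1 for less and -1 for more cisplatin killing; genes are active when the two siRNAs give the same sign, summing to ±2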. Meaning of the calls: active = both siRNAs shift cisplatin killing the same way; inactive = no consistent shift, or siRNA harmful alone.
Here is an unselected part of about 23,000 deposited reagents. Of all reagents, 455 (2%) were called active. 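Active includes both protection and sensitisation; some change values fall well beyond the stated -50 to +50 range.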 Unmarked entries are inactive. No sequences are given here. The record does not give: the amount of reagent.

gene	two-siRNA summed score (-2 to +2)	mean protection from cisplatin (shift in death) (%)	protection from cisplatin (shift in death), siRNA C (%)	protection from cisplatin (shift in death), siRNA D (%)
UGCG	0	5.8	7.7	3.9
PRR7	0	6	1.9	10.1
LOC390616	-1	2.4	-5.8	10.5
FAAP100	0	2.4	2.7	2.1
GP1BA	0	9.6	-2.1	21.3
LOC441399	0	-2.7	-17.2	11.8
LOC440432	0	7.6	-2.5	17.7
CYSTM1	-1	-10.1	-7.5	-12.6
OR8D4	1	13.3	16.6	10
C11orf24	-1	-15.2	-2	-28.3
TIPE1	0	-10.9	0	-21.9
LOC400999	0	-2.6	-7	1.8
BACH2	-1	-22.6	-36	-9.2
SLFN11	0	14.2	15.7	12.6
BPNT2	0	1.2	-3.9	6.2
ABCF3	-1	-15	-24.1	-5.8
PTGIS	0	-1.1	-1.7	-0.6
MGST1	0	2.9	-4.9	10.8
CNTN1	1	11.5	14.1	9
PSMB2	0	-0.5	-8.8	7.7
NFRKB	0	18.5	14.1	23
MTMR2	0	9.6	5.9	13.4
KIF5A	-1	-16.3	-1.8	-30.9
APOBEC3C	0	6.7	13.5	-0.1
EPHA1	1	11.9	9.2	14.6
LOC389237	1	18.4	22.6	14.3
MYO5B	0	7.7	3.5	11.9
RUMY4	0	7.5	10.2	4.8
OR8A1	-1	-2.6	14.6	-19.8

In a second layout: entries from further up.
gene,two-siRNA summed score (-2 to +2),mean protection from cisplatin (shift in death) (%),"protection from cisplatin (shift in death), siRNA C (%)","protection from cisplatin (shift in death), siRNA D (%)"
PTGIS,0,-1.1,-1.7,-0.6
MGST1,0,2.9,-4.9,10.8
CNTN1,1,11.5,14.1,9
PSMB2,0,-0.5,-8.8,7.7
NFRKB,0,18.5,14.1,23
MTMR2,0,9.6,5.9,13.4
KIF5A,-1,-16.3,-1.8,-30.9
APOBEC3C,0,6.7,13.5,-0.1
EPHA1,1,11.9,9.2,14.6

Next results follow.
gene	two-siRNA summed score (-2 to +2)	mean protection from cisplatin (shift in death) (%)	protection from cisplatin (shift in death), siRNA C (%)	protection from cisplatin (shift in death), siRNA D (%)
LOC388163	0	14.4	10.9	18
LOC400208	0	6	13.7	-1.8
LOC121006	1	19.8	11.5	28
LCLAT1	0	7.9	8.8	7.1
SLC48A1	0	-6.2	-18.5	6.1
NPL	0	0.3	-1.9	2.5
MYADM	0	-2.7	-8.1	2.7
HS6ST3	0	4.3	6.4	2.2
ABCB1	0	10.8	1.6	20
CYP19A1	-1	-8.7	8.8	-26.2
DNAJB1	1	18.3	19.2	17.4
TRIP13	0	-1.5	-11.2	8.2
MBD5	0	-2.2	-9.9	5.5
PRELID1P6	1	13.8	32.2	-4.7
CEP57L1	0	9.2	8.4	10
RPL10A	0	15.5	39.5	-8.5
LINC02783	0	2.3	-6.3	11
CKS1B	0	-2.7	-21.9	16.4
PHOX2A	-1	-2.5	4.9	-10
LOC285194	0	7.7	5.7	9.8
EFNA5	-1	-15.8	-12.1	-19.6
PPY	-1	-10.6	-32.4	11.2
LOC441424	0	6.9	6.7	7
C1QL4	0	15.9	26.8	5
LOC283166	0	0.7	-3.5	4.9
TUBA1B	0	-2	-2.1	-2
TCAF1	0	6.2	2.7	9.7
TSNAX	0	1	-2.1	4.2
SLC22A24	0	-4.3	-9.7	1.1
PI4KB	0	10.7	22.4	-1
SIRAL2	0	-4.2	-8.2	-0.2
RNF4	0	6.6	3.1	10.2
LOC343295	0	-14.2	-9.8	-18.7
GATC	0	22.1	6.1	38.2
CAGE1	0	9.2	16.9	1.4
GLYATL2	0	6.8	3.8	9.9
SPSB3	2 (active)	22.8	17.7	27.8
HDLBP	2 (active)	24.4	32.8	16
SUMO2	0	-2.4	0.5	-5.4
CBY1	1	12.5	17.7	7.3
LOC347487	0	3.4	-0.4	7.2
ACSBG2	0	6.6	13.1	0.2
CRYGN	1	10	0.2	19.8
ZNF248	0	13.5	12.1	15
